# According to the supplement of paper PMC9135407:
# Several values for one entry are separate records, joined by “and”; a condition that tells them apart may be missing. Equal entries are not always repeated. Structures can show the parent of a compound that is named as a salt. ± gives the standard deviation of the averaged measurements. The list shows a part of the results. Baselines shift from plate to plate; read single values as rough.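 Primary human stellate myofibroblasts activated in culture; inactivation shown by regained lipid droplets. Readout: fraction of Hoechst-counted cells exceeding a per-plate Bodipy threshold, duplicate wells, each plate with DMSO negative and nortriptyline positive controls. Hits: control-normalized score beyond the plate's top-tenth-percentile nortriptyline wells, or among its three best wells. Final well concentrations unstated.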
# System: primary human hepatic stellate cells (donor 1)
# Test: percent Bodipy-positive cells; higher = more lipid droplet accumulation
# Settings: 48 h
# Description: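 Primary lipid accumulation screen in primary human hepatic stellate cell myofibroblasts (donor 1, passage 8) in 384-well plates. 100 nL of library compound was pin-transferred into 30 µL medium in duplicate, and cells were treated for 48 h. The 'Scaled' score combines distance from plate baseline, toxicity and reproducibility penalties, and is normalised to nortriptyline (positive) and DMSO (negative) controls on each plate. A hit is defined as scaled >0.85 or among the top 3 wells per plate.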
# [1] = library stock concentration: 3.33 mM
# [2] = library stock concentration: 10 mM
# [3] = library stock concentration: 80 uM
# [4] = library stock concentration: 400 uM
smiles,measurement,setting,value
C[C@]12CCC(=O)C=C1[C@@H]1C[C@@H]1[C@H]1[C@@H]3[C@@H]4C[C@@H]4[C@@]4(CCC(=O)O4)[C@@]3(C)CC[C@@H]12 [Drospirenone],percent Bodipy-positive cells,[1],11.2 ± 2.9%
same,percent Bodipy-positive cells,[2],22.8 ± 1.4%
OCCn1cc(-c2cnc3nnn(Cc4ccc5ncccc5c4)c3n2)cn1,percent Bodipy-positive cells,[3],8.95 ± 1.6%
same,percent Bodipy-positive cells,[4],17% and 27.8%
same,percent Bodipy-positive cells,library stock concentration: 2 mM,9.47% and 19.7%
same,percent Bodipy-positive cells,[1],6.34 ± 3.4%
CC1=C(/C=C/C(C)=C/C=C/C(C)=C/CO)C(C)(C)CCC1 [Retinol],percent Bodipy-positive cells,library stock concentration: 7 mM,19.4 ± 5%
same,percent Bodipy-positive cells,[2],23.2 ± 3.5%
O=C(O)c1ccccc1OP(=O)(O)O [Fosfosal],percent Bodipy-positive cells,,7.44 ± 2.1%
same,percent Bodipy-positive cells,[2],19.4 ± 2.6%
C/C=C(/C(=C/C)c1ccc(O)cc1)c1ccc(O)cc1 [Dienestrol],percent Bodipy-positive cells,,20 ± 6.6%
same,percent Bodipy-positive cells,library stock concentration: 7.5 mM,14 ± 0.22%
same,percent Bodipy-positive cells,[2],10.1 ± 3.1%
CCOc1cc2ncc(C#N)c(Nc3ccc(F)c(Cl)c3)c2cc1NC(=O)C=CCN(C)C [Pelitinib (EKB-569)],percent Bodipy-positive cells,[1],97.4 ± 2.8%
Nc1nc2[nH]c(=O)[nH]c2c(=O)[nH]1 [8-hydroxy Guanine (hydrochloride)],percent Bodipy-positive cells,library stock concentration: 1 mM,8.63 ± 0.42%
Cc1ncc([N+](=O)[O-])n1CC(C)O (centres undefined) [Secnidazole],percent Bodipy-positive cells,[1],6.63 ± 0.6%
Cc1ncc([N+](=O)[O-])n1CC(C)O (centres undefined) [1-(2-Methyl-5-nitro-imidazol-1-yl)-propan-2-ol],percent Bodipy-positive cells,[2],12.5 ± 4.2%
CCCCn1c(=O)c2[nH]c(C34CC5CC(CC3C5)C4)nc2n(CCCO)c1=O,percent Bodipy-positive cells,[2],7.15 ± 3.5%
CC(C)C[C@H](NC(=O)N1CCCCCC1)C(=O)N[C@H](Cc1cn(C)c2ccccc12)C(=O)N[C@H](Cc1ccccn1)C(=O)O,percent Bodipy-positive cells,[2],9.2 ± 3.4%
O=C1C(SCCO)=C(SCCO)C(=O)c2ccccc21,percent Bodipy-positive cells,library stock concentration: 16.1 mM,100%
O=C(O)c1ccc2cc(-c3ccc(O)c(C45CC6CC(CC(C6)C4)C5)c3)ccc2c1,percent Bodipy-positive cells,[2],11.7 ± 5.7%
CCC(NC(C)C)C(O)c1ccc(O)c2[nH]c(=O)ccc12 (centres undefined) [Procaterol hcl],percent Bodipy-positive cells,library stock concentration: 6.9 mM,11.3 ± 3.8%
CCC(NC(C)C)C(O)c1ccc(O)c2[nH]c(=O)ccc12 (centres undefined) [Procaterol hydrochloride],percent Bodipy-positive cells,library stock concentration: 6.1 mM,2.27 ± 1.1%
same,percent Bodipy-positive cells,[2],11.6 ± 4.9%
Cc1ccc(C(=O)Nc2ccc(CN3CCN(C)CC3)c(C(F)(F)F)c2)cc1C#Cc1cnc2[nH]ncc2c1,percent Bodipy-positive cells,[1],99.63 ± 0.53%
same,percent Bodipy-positive cells,[2],100%
O=C(Nc1ccc(S(=O)(=O)Nc2ccccc2Cl)c(Cl)c1)c1ccccn1,percent Bodipy-positive cells,[1],42.5 ± 11%
same,percent Bodipy-positive cells,[2],47.4 ± 7.9%
Oc1ccc(-c2nc(-c3ccc(F)cc3)c(-c3ccncc3)[nH]2)cc1,percent Bodipy-positive cells,[3],13.5 ± 7.2%
same,percent Bodipy-positive cells,[4],16.8% and 31.1%
same,percent Bodipy-positive cells,[1],10.1% and 11.1%
same,percent Bodipy-positive cells,library stock concentration: 15.1 mM,34.5 ± 2.1%
O=c1n(CCCN2CCN(c3cccc(Cl)c3)CC2)nc2ccccn12 [Trazodone hydrochloride],percent Bodipy-positive cells,,31.84 ± 0.11%
same,percent Bodipy-positive cells,library stock concentration: 4.9 mM,32.8 ± 7.6%
same,percent Bodipy-positive cells,[2],39.5% and 47.2%
O=c1n(CCCN2CCN(c3cccc(Cl)c3)CC2)nc2ccccn12,percent Bodipy-positive cells,[2],8.69 ± 2%
CC(=O)NCCCCCC(=O)O [Acexamic acid],percent Bodipy-positive cells,[2],23 ± 2.1%
O=C(O)c1cc(=O)[nH]c(=O)[nH]1 [Orotic acid (6-Carboxyuracil)],percent Bodipy-positive cells,[1],7.46 ± 2.1%
same,percent Bodipy-positive cells,[2],19.9 ± 2.2%
O=C(O)c1cc(=O)[nH]c(=O)[nH]1,percent Bodipy-positive cells,[2],26.4 ± 2.1%
Cl.N#Cc1ccc2[nH]cc(CCCCN3CCN(c4ccc5oc(C(N)=O)cc5c4)CC3)c2c1 [Vilazodone HCl],percent Bodipy-positive cells,[2],98.73 ± 0.21%
"CCCCCC(=O)/C=C/C=C\CCCCCCCC(=O)O [13-Keto-octadeca-9Z,11E-dienoic acid]",percent Bodipy-positive cells,library stock concentration: 100 uM,6.22 ± 3.9%
Cc1ccccc1C(C(=O)NC1CCCCC1)N(C(=O)Cn1ccnc1C)c1cccc(F)c1 (centres undefined),percent Bodipy-positive cells,[1],34.6 ± 10%
same,percent Bodipy-positive cells,[2],47 ± 7.7%
CN(C)C(=O)n1nnnc1Cc1ccc(-c2ccccc2)cc1,percent Bodipy-positive cells,[2],42.1 ± 0.68%
CCOc1cc(C(=O)Nc2ccc(Cl)c(-c3nc4ccccc4[nH]3)c2)cc(OCC)c1OCC,percent Bodipy-positive cells,[2],36.5 ± 6.5%
CC1(C)S[C@@H]2[C@H](NC(=O)[C@H](N)c3ccccc3)C(=O)N2[C@H]1C(=O)O [Ampicillin sodium],percent Bodipy-positive cells,[1],16.3 ± 2.3%
same,percent Bodipy-positive cells,library stock concentration: 5.4 mM,3.42 ± 0.55%
same,percent Bodipy-positive cells,[2],32.7% and 14%
CC1(C)S[C@@H]2[C@H](NC(=O)[C@H](N)c3ccccc3)C(=O)N2[C@H]1C(=O)O [Ampicillin Trihydrate],percent Bodipy-positive cells,[1],9.87 ± 3.1%
same,percent Bodipy-positive cells,[2],35.9 ± 18%
CC1(C)S[C@@H]2[C@H](NC(=O)[C@H](N)c3ccccc3)C(=O)N2[C@H]1C(=O)O [Ampicillin trihydrate],percent Bodipy-positive cells,,18.66 ± 0.099%
same,percent Bodipy-positive cells,library stock concentration: 5.7 mM,12.3 ± 0.88%
CC1(C)S[C@@H]2[C@H](NC(=O)[C@H](N)c3ccccc3)C(=O)N2[C@H]1C(=O)O [Ampicillin Sodium],percent Bodipy-positive cells,[2],26.1 ± 3.7%
C=C[C@H]1CN2CC[C@H]1C[C@H]2[C@H](O)c1ccnc2ccc(OC)cc12 [Quinine HCl Dihydrate],percent Bodipy-positive cells,[1],15 ± 2%
same,percent Bodipy-positive cells,[2],34.5 ± 4.5%
C=C[C@H]1CN2CC[C@H]1C[C@H]2[C@H](O)c1ccnc2ccc(OC)cc12 [Quinine],percent Bodipy-positive cells,library stock concentration: 6.2 mM,21.4 ± 0.69%
C=C[C@H]1CN2CC[C@H]1C[C@H]2[C@H](O)c1ccnc2ccc(OC)cc12 [Quinine sulfate],percent Bodipy-positive cells,library stock concentration: 4.7 mM,44.1 ± 5.9%
"O=C(/C=C/c1ccccc1)c1ccc(O[C@@H]2O[C@H](CO)[C@@H](O)[C@H](O)[C@H]2O)cc1O [2',4'-dihydroxychalcone 4'-glucoside]",percent Bodipy-positive cells,[2],20.4 ± 3.5%

# For convenience, some entries already given.
smiles,measurement,setting,value
CCOc1cc(C(=O)Nc2ccc(Cl)c(-c3nc4ccccc4[nH]3)c2)cc(OCC)c1OCC,percent Bodipy-positive cells,[2],36.5 ± 6.5%
CC1(C)S[C@@H]2[C@H](NC(=O)[C@H](N)c3ccccc3)C(=O)N2[C@H]1C(=O)O [Ampicillin sodium],percent Bodipy-positive cells,[1],16.3 ± 2.3%
same,percent Bodipy-positive cells,library stock concentration: 5.4 mM,3.42 ± 0.55%
same,percent Bodipy-positive cells,[2],32.7% and 14%
